This note sets out measurements from article doi:10.1101/2025.06.30.662258.

Amino acid sequences for entries named in this document (tags omitted).
UniProt Q99496: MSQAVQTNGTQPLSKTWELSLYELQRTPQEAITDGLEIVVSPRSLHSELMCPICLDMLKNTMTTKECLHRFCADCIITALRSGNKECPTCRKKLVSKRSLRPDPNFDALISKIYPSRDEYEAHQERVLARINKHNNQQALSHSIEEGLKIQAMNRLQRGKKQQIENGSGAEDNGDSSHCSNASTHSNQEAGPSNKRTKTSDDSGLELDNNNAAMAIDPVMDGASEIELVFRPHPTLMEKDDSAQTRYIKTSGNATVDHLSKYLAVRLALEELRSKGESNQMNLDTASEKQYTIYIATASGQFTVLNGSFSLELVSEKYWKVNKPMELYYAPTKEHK
UniProt P35226: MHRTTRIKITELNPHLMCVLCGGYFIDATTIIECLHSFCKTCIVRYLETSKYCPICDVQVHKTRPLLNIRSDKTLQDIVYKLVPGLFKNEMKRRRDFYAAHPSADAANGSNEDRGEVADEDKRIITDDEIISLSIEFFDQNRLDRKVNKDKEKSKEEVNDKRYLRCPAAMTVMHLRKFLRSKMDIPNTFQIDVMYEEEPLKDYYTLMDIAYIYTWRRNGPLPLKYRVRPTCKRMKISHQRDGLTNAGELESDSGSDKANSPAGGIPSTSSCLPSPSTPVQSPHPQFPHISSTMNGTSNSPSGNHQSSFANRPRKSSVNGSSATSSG

For experiment [1], the target named is T1, Fibrillarin (FBL) (UniProt P22087).
T1 sequence: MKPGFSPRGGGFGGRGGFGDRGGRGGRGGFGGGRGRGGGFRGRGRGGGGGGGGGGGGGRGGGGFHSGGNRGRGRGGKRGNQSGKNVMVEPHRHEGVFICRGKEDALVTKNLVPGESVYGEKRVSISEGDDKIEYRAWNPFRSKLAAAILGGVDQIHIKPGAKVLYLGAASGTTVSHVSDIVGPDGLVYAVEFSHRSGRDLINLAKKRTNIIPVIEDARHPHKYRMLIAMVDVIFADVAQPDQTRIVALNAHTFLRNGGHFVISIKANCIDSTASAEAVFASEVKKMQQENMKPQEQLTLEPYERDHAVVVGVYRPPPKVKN
Put plainly: affinity purification with mass spectrometry.

Experiment [2] addresses T1, Fibrillarin (FBL). Briefly: affinity purification with mass spectrometry. The source holds these as a separate data set.

Read-outs that look alike come from different tables or passages of the source. Results are given in words; binding and its absence hold for the method and conditions named. In cells and extracts the contact can be indirect. These calls come from enrichment with a bait or labelling near it, and not all partners need be listed.

As for RING1B (from UniProt Q99496 1-336), the binding result in experiment [1] is reported as “binds”.
Take BMI1 (from UniProt P35226 1-326): in experiment [1], the binding result is reported as “binds”.

B1: USP36 (Ubiquitin-Specific Protease 36) (enzyme, UniProt Q9P275 1-1123)
chain: MPIVDKLKEALKPGRKDSADDGELGKLLASSAKKVLLQKIEFEPASKSFSYQLEALKSKYVLLNPKTEGASRHKSGDDPPARRQGSEHTYESCGDGVPAPQKVLFPTERLSLRWERVFRVGAGLHNLGNTCFLNATIQCLTYTPPLANYLLSKEHARSCHQGSFCMLCVMQNHIVQAFANSGNAIKPVSFIRDLKKIARHFRFGNQEDAHEFLRYTIDAMQKACLNGCAKLDRQTQATTLVHQIFGGYLRSRVKCSVCKSVSDTYDPYLDVALEIRQAANIVRALELFVKADVLSGENAYMCAKCKKKVPASKRFTIHRTSNVLTLSLKRFANFSGGKITKDVGYPEFLNIRPYMSQNNGDPVMYGLYAVLVHSGYSCHAGHYYCYVKASNGQWYQMNDSLVHSSNVKVVLNQQAYVLFYLRIPGSKKSPEGLISRTGSSSLPGRPSVIPDHSKKNIGNGIISSPLTGKRQDSGTMKKPHTTEEIGVPISRNGSTLGLKSQNGCIPPKLPSGSPSPKLSQTPTHMPTILDDPGKKVKKPAPPQHFSPRTAQGLPGTSNSNSSRSGSQRQGSWDSRDVVLSTSPKLLATATANGHGLKGNDESAGLDRRGSSSSSPEHSASSDSTKAPQTPRSGAAHLCDSQETNCSTAGHSKTPPSGADSKTVKLKSPVLSNTTTEPASTMSPPPAKKLALSAKKASTLWRATGNDLRPPPPSPSSDLTHPMKTSHPVVASTWPVHRARAVSPAPQSSSRLQPPFSPHPTLLSSTPKPPGTSEPRSCSSISTALPQVNEDLVSLPHQLPEASEPPQSPSEKRKKTFVGEPQRLGSETRLPQHIREATAAPHGKRKRKKKKRPEDTAASALQEGQTQRQPGSPMYRREGQAQLPAVRRQEDGTQPQVNGQQVGCVTDGHHASSRKRRRKGAEGLGEEGGLHQDPLRHSCSPMGDGDPEAMEESPRKKKKKKRKQETQRAVEEDGHLKCPRSAKPQDAVVPESSSCAPSANGWCPGDRMGLSQAPPVSWNGERESDVVQELLKYSSDKAYGRKVLTWDGKMSAVSQDAIEDSRQARTETVVDDWDEEFDRGKEKKIKKFKREKRRNFNAFQKLQTRRNFWSVTHPAKAASLSYRR
Consider B1, for which, in experiment [2], the binding entry is on record as “binds”.
